Assay results as given in patent publication US11857601B2, “Pharmaceutical composition for cancer treatment comprising fusion protein including IL-2 protein and CD80 protein and anticancer drug” (GI INNOVATION, INC., priority 2020, dated 2024).

Tests used:
[1] = system: LL/2 cell line; assay: mGI-101 and Axitinib in LL/2 allotransplanted tumor model; type: in vivo, C57BL/6 mice; conditions: mGI-101 3 mg/kg IP, Axitinib 30 mg/kg PO
[2] = system: CT26 cells; assay: mGI-101 and Axitinib in CT26 allotransplanted tumor model; conditions: mGI-101 3 mg/kg IP, Axitinib 30 mg/kg PO;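 note: subcutaneous CT26 syngeneic tumors in male BALB/c mice, dosing started once tumors were near 50 mm^3, drugs given orally or intraperitoneally for up to 3 weeks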

CNC(=O)c1ccccc1Sc1ccc2c(/C=C/c3ccccn3)n[nH]c2c1 [Axitinib, reference compound]
Tumor growth inhibition ([1]; Day 2, mean ± SD): 18.79 ± 28.38%
Tumor growth inhibition ([1]; Day 5, mean ± SD): 2.10 ± 36.27%
Tumor growth inhibition ([1]; Day 7, mean ± SD): 24.30 ± 23.63%
Tumor growth inhibition ([1]; Day 9, mean ± SD): 28.19 ± 23.46%
Tumor growth inhibition ([1]; Day 12, mean ± SD): 22.90 ± 23.42%
Tumor growth inhibition ([1]; Day 14, mean ± SD): 21.82 ± 24.12%
Tumor growth inhibition ([1]; Day 16, mean ± SD): 20.58 ± 21.15 (9) %
Tumor growth inhibition ([1]; Day 19, mean ± SD): 16.55 ± 23.06 (9) %
Tumor growth inhibition ([1]; Day 21, mean ± SD): 20.08 ± 20.18 (9) %
Tumor growth inhibition ([2]; Day 5, mean ± SD): 32.19 ± 18.64%
Tumor growth inhibition ([2]; Day 7, mean ± SD): 28.62 ± 24.35%
Tumor growth inhibition ([2]; Day 9, mean ± SD): 25.81 ± 27.77%
Tumor growth inhibition ([2]; Day 12, mean ± SD): 35.92 ± 27.44%
Tumor growth inhibition ([2]; Day 14, mean ± SD): 46.82 ± 25.79 %
Tumor growth inhibition ([2]; Day 16, mean ± SD): 44.37 ± 28.66 %
Tumor growth inhibition ([2]; Day 19, mean ± SD): 46.04 ± 31.96 %
Tumor growth inhibition ([2]; Day 21, mean ± SD): 45.45 ± 37.30 %
